A short description of data set [1]: Sensory evaluation of p-cresol odor masking in p-cresol-containing citrus-flavored beverage. The following applies: beverage with 50 ppb p-cresol, average score of 7 panelists, scale 0-4. The method, then: To 2 g of lemon flavor obtained by making lemon oil into an essence, purified water was added to adjust the total amount to 1000 ml. To this citrus-flavored beverage, p-cresol adjusted to a concentration of 1% by mass with 95% ethanol was added to 50 ppb in the citrus-flavored beverage. To this p-cresol-containing citrus-flavored beverage, 1-oxacycloheptadecan-7-en-2-one was added at the concentrations presented in Table 1 to confirm the p-cresol odor intensity (masking effect) and the influence on the citrus flavor of each sample.
For the test, seven skilled panelists were selected to perform sensory evaluation. The p-cresol odor intensity of the p-cresol-containing citrus-flavored beverage without added l-oxacycloheptadecan-7-en-2-one was determined as “Rating: 4,” and the p-cresol odor intensity of the p-cresol-free citrus-flavored beverage was determined as “Rating: 0,” and the p-cresol odor intensity (masking effect) of each sample was relatively evaluated according to the following evaluation criteria.
In addition, the influence of the citrus-flavored beverage on the citrus flavor was evaluated absolutely according to the following evaluation criteria for the presence or absence of off- flavor other than p-cresol odor and citrus flavor (Off-Flavor Intensity).
The results are as in Table 1, presenting the average score of the evaluation results for each panelist.

A short description of data set [2]: Sensory evaluation of p-cresol odor masking in p-cresol-containing citrus-flavored confectionery (tablet). The following applies: tablet with 200 ppb p-cresol, average score of 6 panelists, scale 0-4. The method, then: Lemon cold-pressed oil was added to the tablet having the composition presented in Table A at a concentration of 1 % by mass, and medium chain fatty acid triglycerides (MCT) was used to adjust p-cresol to a concentration of 0.1%, which was further added so as to reach 200 ppb in the citrus flavored confectionery. To this p-cresol-containing citrus-flavored confectionery, 1-oxacycloheptadecan-7-en-2-one was added at the concentrations presented in Table 12, and then tableting was performed to confirm the p-cresol odor intensity (masking effect) and the influence on the citrus flavor of each sample.
Six skilled panelists were selected to perform the same sensory evaluation as in Example 1. The results are as in Table 12, presenting the average score of the evaluation results for each panelist.

The structures appear in SMILES notation.

For `CCc1occc(=O)c1O` [Ethyl Maltol, ethyl maltol], the “Off-Flavor Intensity” value in data set [1] (1 ppb added) was determined as 0.6 points; in data set [1] (1 ppm added) it was 2.1 points; in data set [1] (10 ppb added), 1.3 points; in data set [1] (10 ppm added), 2.4 points; in data set [1] (10 ppt added), 0.3 points; in data set [1] (100 ppb added), 1.9 points. The “Off-Flavor Intensity” value stood at 3.9 points in data set [1] (100 ppm added) and 0.6 points in data set [1] (100 ppt added).

For `CCCCCC1CC=CC(=O)O1` (stereo not shown) [δ-2-Decenolactone, δ-2-decenolactone], the “Off-Flavor Intensity” value in data set [1] (1 ppb added) is listed as 1.4 points; in data set [1] (1 ppm added), 3.4 points; in data set [1] (1 ppt added) it was 0.1 points; in data set [1] (10 ppb added), 2.0 points; in data set [1] (10 ppm added), 3.6 points; in data set [1] (10 ppt added), 0.6 points. The entries for the “Off-Flavor Intensity” value in data set [1] (100 ppb added) and in data set [1] (100 ppt added) were 2.7 points and 1.1 points, respectively.

In the case of `O=C/C=C/c1ccccc1` [Cinnamic Aldehyde, cinnamic aldehyde], the “Off-Flavor Intensity” value in data set [1] (1 ppb added) is reported as 0.9 points; in data set [1] (1 ppm added) it was 2.1 points; in data set [1] (10 ppb added) it was 1.1 points; in data set [1] (10 ppm added), 2.6 points; in data set [1] (10 ppt added), 0.3 points; in data set [1] (100 ppb added), 1.9 points. The “Off-Flavor Intensity” value in data set [1] (100 ppm added) amounted to 3.7 points; in data set [1] (100 ppt added), 0.4 points.

As to `O=C1CCCCC=CCCCCCCCCCO1` [1-Oxacycloheptadecan-7-En-2-One, 1-oxacycloheptadecan-7-en-2-one], the “Off-Flavor Intensity” value was determined as 0.4 points in data set [1] (0.01 ppt added); 0.7 points in data set [1] (0.1 ppt added); 2.9 points in data set [1] (1 ppb added); 1.0 points in data set [1] (1 ppt added); 3.6 points in data set [1] (10 ppb added); 1.4 points in data set [1] (10 ppt added). Further, the “Off-Flavor Intensity” value in data set [1] (100 ppb added) turned out to be 3.9 points; in data set [1] (100 ppt added), 2.0 points; in data set [2] (4 ppb added), 1.5 points; in data set [2] (40 ppb added), 1.7 points; in data set [2] (40 ppt added), 1.0 points; in data set [2] (400 ppb added), 2.5 points. The “Off-Flavor Intensity” value in data set [2] (400 ppt added) came out at 1.3 points.

In the case of `C[C@@H]1CCCCCCCCCCCCC(=O)C1` [Muscone, muscone], the “Off-Flavor Intensity” value in data set [1] (0.001 ppt added) amounted to 0.4 points; in data set [1] (0.01 ppt added) it was 0.9 points; in data set [1] (0.1 ppt added) it was 1.1 points; in data set [1] (1 ppb added) it was 2.7 points; in data set [1] (1 ppt added), 1.7 points; in data set [1] (10 ppb added) it was 3.6 points. The “Off-Flavor Intensity” value came to 2.0 points in data set [1] (10 ppt added), 3.9 points in data set [1] (100 ppb added) and 2.6 points in data set [1] (100 ppt added).

With `O=C1CCCCCCC/C=C\CCCCCCO1` [Isoambrettolide, isoambrettolide], the “Off-Flavor Intensity” value in data set [1] (0.01 ppt added) worked out at 0.6 points; in data set [1] (0.1 ppt added) it was 1.3 points; in data set [1] (1 ppb added), 2.9 points; in data set [1] (1 ppt added) it was 1.6 points; in data set [1] (10 ppb added), 3.3 points; in data set [1] (10 ppt added) it was 2.0 points. The “Off-Flavor Intensity” value is given as 3.6 points in data set [1] (100 ppb added); 2.6 points in data set [1] (100 ppt added); 1.3 points in data set [2] (4 ppb added); 1.5 points in data set [2] (40 ppb added); 1.2 points in data set [2] (40 ppt added); 2.3 points in data set [2] (400 ppb added). For the same compound, the “Off-Flavor Intensity” value in data set [2] (400 ppt added) was 1.2 points.

`O=C1CCCCCCCCCCCCCCO1` [Pentalide, pentalide]: the “Off-Flavor Intensity” value in data set [1] (0.01 ppt added) was 0.4 points; in data set [1] (0.1 ppt added), 0.9 points; in data set [1] (1 ppb added) it was 2.7 points; in data set [1] (1 ppt added), 1.4 points; in data set [1] (10 ppb added), 3.3 points; in data set [1] (10 ppt added), 1.7 points. Besides, the “Off-Flavor Intensity” value was determined as 3.7 points in data set [1] (100 ppb added); 2.3 points in data set [1] (100 ppt added); 1.5 points in data set [2] (4 ppb added); 1.8 points in data set [2] (40 ppb added); 1.0 points in data set [2] (40 ppt added); 2.8 points in data set [2] (400 ppb added). Further, the “Off-Flavor Intensity” value in data set [2] (400 ppt added) amounted to 1.3 points.

For `O=C1CCCCCCC/C=C\CCCCCCC1` [Civetone, civetone], the “Off-Flavor Intensity” value was determined as 0.7 points in data set [1] (0.001 ppt added); 0.9 points in data set [1] (0.01 ppt added); 1.6 points in data set [1] (0.1 ppt added); 2.9 points in data set [1] (1 ppb added); 2.0 points in data set [1] (1 ppt added); 3.7 points in data set [1] (10 ppb added). Further, the results for the “Off-Flavor Intensity” value in data set [1] (10 ppt added), in data set [1] (100 ppb added) and in data set [1] (100 ppt added) were 2.1 points, 3.9 points and 2.7 points, respectively.

Consider `O=C1CCCCCC=CCCCCCCCCO1` [1-Oxacycloheptadecan-8-En-2-One, 1-oxacycloheptadecan-8-en-2-one], for which the “Off-Flavor Intensity” value in data set [1] (0.01 ppt added) is on record as 0.3 points; in data set [1] (0.1 ppt added), 0.7 points; in data set [1] (1 ppb added) it was 2.9 points; in data set [1] (1 ppt added), 0.9 points; in data set [1] (10 ppb added), 3.4 points; in data set [1] (10 ppt added), 1.6 points. Also, the “Off-Flavor Intensity” value amounted to 3.7 points in data set [1] (100 ppb added); 2.3 points in data set [1] (100 ppt added); 1.0 points in data set [2] (4 ppb added); 1.2 points in data set [2] (40 ppb added); 0.8 points in data set [2] (40 ppt added); 2.0 points in data set [2] (400 ppb added). Further, the “Off-Flavor Intensity” value in data set [2] (400 ppt added) was determined as 1.0 points.

Take `C=C1CC[C@H]2O[C@]2(C)CC[C@@H]2[C@@H]1CC2(C)C` [β-caryophyllene Oxide, β-caryophyllene oxide]: the “Off-Flavor Intensity” value in data set [1] (1 ppb added) is recorded as 1.3 points; in data set [1] (1 ppm added) it was 2.6 points; in data set [1] (10 ppb added), 1.6 points; in data set [1] (10 ppm added), 3.4 points; in data set [1] (10 ppt added), 0.6 points; in data set [1] (100 ppb added) it was 2.0 points. Also, the “Off-Flavor Intensity” value in data set [1] (100 ppm added) is 3.7 points; in data set [1] (100 ppt added) it was 1.0 points.

Take `CC1(C)CCC[C@]2(C)[C@H]3CC(=O)O[C@]3(C)CC[C@@H]12` [Sclareolide, sclareolide]: the “Off-Flavor Intensity” value worked out at 0.9 points in data set [1] (1 ppb added); 2.6 points in data set [1] (1 ppm added); 1.3 points in data set [1] (10 ppb added); 3.4 points in data set [1] (10 ppm added); 0.1 points in data set [1] (10 ppt added); 2.0 points in data set [1] (100 ppb added). Also, in data set [1] (100 ppt added), the “Off-Flavor Intensity” value is 0.3 points.

Source of the values: patent US20230180804A1, “FLAVOR COMPOSITION, AND FOOD AND BEVERAGE” (TAKASAGO INTERNATIONAL CORPORATION, priority 2020, published 2023).
